In the supplement of paper PMC10849652:
Some of the results follow.

Amino acid sequences for entries named in this document (tags omitted). A change or cut given only in a name is not applied to a line headed by its entry.
UniProt O60890: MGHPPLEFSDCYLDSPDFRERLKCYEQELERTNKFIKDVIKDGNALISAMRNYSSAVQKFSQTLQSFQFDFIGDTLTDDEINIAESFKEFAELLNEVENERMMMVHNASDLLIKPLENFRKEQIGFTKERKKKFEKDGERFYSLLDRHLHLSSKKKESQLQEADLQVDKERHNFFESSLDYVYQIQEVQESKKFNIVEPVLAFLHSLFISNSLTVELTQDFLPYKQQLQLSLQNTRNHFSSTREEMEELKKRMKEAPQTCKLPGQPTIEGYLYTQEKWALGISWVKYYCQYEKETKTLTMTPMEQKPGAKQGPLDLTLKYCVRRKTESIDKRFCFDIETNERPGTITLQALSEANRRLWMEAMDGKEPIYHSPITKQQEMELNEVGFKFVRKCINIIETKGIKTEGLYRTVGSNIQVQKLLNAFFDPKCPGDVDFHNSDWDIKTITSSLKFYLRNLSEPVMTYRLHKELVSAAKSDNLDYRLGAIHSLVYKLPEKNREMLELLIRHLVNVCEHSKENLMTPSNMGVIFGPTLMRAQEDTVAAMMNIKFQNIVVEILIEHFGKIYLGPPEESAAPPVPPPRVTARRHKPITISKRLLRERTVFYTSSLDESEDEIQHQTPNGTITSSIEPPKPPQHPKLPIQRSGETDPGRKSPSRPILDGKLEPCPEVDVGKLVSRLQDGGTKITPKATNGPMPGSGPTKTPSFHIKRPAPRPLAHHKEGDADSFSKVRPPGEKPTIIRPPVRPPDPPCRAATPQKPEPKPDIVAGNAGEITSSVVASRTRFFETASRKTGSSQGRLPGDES
UniProt Q8WV22: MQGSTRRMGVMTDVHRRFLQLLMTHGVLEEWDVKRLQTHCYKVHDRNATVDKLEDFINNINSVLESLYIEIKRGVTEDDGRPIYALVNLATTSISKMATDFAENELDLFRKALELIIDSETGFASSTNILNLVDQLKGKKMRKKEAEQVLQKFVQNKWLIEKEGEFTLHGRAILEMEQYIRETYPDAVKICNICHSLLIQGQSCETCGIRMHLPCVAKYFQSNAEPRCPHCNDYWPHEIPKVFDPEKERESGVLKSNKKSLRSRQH
UniProt Q14980: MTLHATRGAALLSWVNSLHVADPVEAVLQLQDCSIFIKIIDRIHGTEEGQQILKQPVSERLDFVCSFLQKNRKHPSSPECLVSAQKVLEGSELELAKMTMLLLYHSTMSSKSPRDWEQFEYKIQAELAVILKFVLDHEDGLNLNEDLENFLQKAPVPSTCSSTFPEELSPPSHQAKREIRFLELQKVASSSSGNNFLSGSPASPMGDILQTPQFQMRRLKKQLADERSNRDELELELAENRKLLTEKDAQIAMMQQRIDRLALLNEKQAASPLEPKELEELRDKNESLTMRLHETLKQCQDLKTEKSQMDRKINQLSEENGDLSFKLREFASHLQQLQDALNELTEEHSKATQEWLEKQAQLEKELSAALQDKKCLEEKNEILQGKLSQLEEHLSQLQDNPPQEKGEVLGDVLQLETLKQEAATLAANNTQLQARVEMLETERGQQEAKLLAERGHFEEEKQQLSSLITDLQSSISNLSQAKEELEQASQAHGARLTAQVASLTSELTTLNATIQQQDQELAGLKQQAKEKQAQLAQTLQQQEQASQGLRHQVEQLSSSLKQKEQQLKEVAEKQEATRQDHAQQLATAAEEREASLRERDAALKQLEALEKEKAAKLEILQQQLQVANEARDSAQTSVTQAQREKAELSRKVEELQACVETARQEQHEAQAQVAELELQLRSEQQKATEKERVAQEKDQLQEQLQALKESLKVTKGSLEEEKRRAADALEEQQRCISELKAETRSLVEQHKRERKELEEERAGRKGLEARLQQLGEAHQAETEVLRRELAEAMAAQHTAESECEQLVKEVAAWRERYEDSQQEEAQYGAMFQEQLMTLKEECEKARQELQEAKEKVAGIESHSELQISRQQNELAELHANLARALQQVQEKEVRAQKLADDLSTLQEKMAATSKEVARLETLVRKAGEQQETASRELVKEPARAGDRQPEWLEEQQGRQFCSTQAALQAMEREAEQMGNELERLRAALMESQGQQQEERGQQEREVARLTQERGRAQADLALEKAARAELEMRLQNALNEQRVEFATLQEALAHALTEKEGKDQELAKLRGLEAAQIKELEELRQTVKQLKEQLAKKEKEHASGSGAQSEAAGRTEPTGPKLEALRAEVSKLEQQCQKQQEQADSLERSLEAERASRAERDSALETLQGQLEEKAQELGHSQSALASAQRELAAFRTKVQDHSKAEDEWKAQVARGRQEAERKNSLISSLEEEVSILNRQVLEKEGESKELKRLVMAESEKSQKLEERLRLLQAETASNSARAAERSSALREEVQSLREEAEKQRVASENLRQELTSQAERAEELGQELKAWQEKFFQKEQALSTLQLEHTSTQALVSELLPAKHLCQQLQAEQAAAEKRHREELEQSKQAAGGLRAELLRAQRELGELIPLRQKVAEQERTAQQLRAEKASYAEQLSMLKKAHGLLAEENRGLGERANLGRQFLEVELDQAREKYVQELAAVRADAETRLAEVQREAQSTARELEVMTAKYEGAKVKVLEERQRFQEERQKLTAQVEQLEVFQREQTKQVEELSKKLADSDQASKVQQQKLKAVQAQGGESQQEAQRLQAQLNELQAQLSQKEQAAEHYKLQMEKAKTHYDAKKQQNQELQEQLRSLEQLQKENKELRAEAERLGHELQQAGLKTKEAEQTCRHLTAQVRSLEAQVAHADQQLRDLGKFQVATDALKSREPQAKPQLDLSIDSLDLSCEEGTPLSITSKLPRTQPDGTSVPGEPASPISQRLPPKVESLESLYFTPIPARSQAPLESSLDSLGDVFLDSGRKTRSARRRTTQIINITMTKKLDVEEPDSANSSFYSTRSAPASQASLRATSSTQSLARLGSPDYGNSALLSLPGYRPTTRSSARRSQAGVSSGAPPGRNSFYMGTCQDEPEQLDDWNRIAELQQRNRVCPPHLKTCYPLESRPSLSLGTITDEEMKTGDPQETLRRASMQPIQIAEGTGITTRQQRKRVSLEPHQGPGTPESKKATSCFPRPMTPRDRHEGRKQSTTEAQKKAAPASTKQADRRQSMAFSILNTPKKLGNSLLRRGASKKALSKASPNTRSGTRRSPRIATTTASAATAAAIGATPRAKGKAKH
UniProt O43809, whole entry, looked up: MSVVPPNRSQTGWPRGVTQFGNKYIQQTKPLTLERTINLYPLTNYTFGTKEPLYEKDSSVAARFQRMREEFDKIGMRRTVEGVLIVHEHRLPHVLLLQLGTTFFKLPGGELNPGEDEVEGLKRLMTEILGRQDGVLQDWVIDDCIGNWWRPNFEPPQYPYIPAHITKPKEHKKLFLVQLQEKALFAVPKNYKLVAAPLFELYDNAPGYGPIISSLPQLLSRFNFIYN
UniProt Q6ZVK8: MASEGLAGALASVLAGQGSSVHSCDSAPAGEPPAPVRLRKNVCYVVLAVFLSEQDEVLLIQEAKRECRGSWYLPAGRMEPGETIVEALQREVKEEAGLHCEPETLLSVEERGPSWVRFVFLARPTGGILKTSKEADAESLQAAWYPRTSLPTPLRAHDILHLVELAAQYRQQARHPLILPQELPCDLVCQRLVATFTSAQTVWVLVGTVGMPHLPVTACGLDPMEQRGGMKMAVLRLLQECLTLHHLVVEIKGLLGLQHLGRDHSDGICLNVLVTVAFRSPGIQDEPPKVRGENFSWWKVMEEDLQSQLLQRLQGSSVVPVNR
UniProt Q9H1E3: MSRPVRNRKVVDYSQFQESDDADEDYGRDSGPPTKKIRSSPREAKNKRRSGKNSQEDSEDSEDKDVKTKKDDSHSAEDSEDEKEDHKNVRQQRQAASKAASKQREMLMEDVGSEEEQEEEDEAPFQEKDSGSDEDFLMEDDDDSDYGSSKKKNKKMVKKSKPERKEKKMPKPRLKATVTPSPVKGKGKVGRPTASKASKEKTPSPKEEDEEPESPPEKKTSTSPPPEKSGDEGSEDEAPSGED
UniProt Q9BRP4: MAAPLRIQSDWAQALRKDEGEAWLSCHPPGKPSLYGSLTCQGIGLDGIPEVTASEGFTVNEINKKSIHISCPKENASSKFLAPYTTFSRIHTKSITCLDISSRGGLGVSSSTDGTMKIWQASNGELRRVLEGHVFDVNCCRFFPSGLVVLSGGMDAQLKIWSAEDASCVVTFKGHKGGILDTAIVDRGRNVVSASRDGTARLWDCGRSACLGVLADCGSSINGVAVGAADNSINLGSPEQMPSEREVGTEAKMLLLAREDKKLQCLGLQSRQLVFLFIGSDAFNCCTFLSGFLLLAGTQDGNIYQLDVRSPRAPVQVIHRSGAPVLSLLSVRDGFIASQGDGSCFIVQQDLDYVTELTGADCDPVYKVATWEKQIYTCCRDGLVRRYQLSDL
UniProt Q08J23, whole entry, looked up: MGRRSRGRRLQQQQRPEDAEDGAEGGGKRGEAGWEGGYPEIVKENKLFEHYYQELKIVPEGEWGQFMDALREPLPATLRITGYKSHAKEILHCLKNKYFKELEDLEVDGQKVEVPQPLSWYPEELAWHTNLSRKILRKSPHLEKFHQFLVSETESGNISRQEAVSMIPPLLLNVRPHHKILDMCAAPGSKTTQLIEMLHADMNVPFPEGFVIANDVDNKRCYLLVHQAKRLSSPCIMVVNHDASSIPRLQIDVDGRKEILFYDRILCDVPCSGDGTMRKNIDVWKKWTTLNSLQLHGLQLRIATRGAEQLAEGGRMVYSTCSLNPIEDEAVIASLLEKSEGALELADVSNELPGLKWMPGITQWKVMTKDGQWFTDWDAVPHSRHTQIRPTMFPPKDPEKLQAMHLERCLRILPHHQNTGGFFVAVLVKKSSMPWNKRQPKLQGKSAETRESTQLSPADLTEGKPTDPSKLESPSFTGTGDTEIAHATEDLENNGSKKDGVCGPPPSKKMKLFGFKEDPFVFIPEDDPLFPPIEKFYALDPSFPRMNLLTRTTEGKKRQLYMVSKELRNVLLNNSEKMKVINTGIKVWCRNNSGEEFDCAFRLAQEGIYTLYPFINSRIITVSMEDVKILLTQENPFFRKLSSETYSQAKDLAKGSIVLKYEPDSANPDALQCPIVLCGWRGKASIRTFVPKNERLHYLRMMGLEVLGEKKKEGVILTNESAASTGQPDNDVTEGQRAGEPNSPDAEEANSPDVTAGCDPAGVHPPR
UniProt P50583: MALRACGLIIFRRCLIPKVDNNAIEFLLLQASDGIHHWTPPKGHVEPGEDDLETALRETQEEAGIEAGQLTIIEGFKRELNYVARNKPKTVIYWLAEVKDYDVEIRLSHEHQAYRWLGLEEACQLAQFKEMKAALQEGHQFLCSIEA
UniProt Q96BN8, whole entry, looked up: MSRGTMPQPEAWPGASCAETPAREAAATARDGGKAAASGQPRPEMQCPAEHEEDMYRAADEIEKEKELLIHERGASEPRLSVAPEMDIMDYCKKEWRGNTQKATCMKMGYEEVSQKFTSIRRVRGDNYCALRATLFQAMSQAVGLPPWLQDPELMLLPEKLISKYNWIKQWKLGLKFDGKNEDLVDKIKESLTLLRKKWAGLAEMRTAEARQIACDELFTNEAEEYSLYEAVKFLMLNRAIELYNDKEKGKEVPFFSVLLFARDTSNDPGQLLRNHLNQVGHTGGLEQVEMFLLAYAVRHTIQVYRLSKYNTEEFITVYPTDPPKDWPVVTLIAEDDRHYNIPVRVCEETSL
UniProt P57740: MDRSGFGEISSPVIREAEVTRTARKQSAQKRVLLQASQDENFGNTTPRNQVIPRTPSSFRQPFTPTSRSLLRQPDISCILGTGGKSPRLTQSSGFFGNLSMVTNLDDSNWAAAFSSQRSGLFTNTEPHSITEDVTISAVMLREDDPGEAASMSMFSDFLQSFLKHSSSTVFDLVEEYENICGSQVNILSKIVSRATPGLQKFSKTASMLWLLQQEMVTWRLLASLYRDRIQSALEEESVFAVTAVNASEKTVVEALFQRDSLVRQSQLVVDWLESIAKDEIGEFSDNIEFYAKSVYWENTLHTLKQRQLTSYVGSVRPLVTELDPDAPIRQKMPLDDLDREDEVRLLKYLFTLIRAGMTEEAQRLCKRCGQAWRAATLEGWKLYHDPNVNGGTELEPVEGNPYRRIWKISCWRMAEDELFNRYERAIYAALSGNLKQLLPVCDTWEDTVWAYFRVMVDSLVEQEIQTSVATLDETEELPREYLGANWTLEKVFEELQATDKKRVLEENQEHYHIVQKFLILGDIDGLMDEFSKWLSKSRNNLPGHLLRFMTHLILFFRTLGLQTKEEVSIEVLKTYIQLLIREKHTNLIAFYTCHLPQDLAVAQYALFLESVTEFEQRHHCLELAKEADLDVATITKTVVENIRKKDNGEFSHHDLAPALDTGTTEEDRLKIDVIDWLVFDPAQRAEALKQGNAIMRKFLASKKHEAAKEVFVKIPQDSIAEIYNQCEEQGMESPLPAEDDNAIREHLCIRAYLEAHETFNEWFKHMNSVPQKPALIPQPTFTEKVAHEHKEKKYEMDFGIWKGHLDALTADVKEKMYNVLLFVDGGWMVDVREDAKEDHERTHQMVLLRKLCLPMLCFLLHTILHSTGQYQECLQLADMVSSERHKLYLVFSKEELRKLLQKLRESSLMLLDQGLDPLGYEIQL

Assays:
Assay in all cases: log2 fold change, soluble protein after heating vs DMSO (PISA); higher = thermal stabilisation; K562 cells, 10 uM, 30 min; active = over 0.2 and 3.5 SD of the protein, either way, in both replicates (recomputed)
[1] = compound: CS(=O)(=O)c1ccc(-c2cnc(N)c(C(=O)Nc3ccccc3)n2)cc1
In short: (§1)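 Values are thermal stability changes relative to control samples and are taken from duplicates. They are stated as log2 fold changes. Before quantification by TMTpro 16plex LC-MS/MS with equalised channel sums, K562 cells at 2×10^6 cells/mL were treated with 10 μM compound for 30 min, heated in aliquots for 3 min across 48°C-58°C, pooled, extracted in PBS with 0.5% NP-40 at 4°C, and centrifuged at 21,000xg for 90 min to give the soluble supernatant.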

[2] = compound: C[C@@H](Oc1cc(-c2cnn(C3CCNCC3)c2)cnc1N)c1c(Cl)ccc(F)c1Cl [crizotinib]
In short: as §1

[3] = compound: C[C@@H]1COCCN1C2=NC(=NC(=C2)C3(CC3)S(=O)(=O)C)C4=C5C=CNC5=CC=C4
In short: as §1

[4] = compound: C[C@H](C1=CC=C(C=C1)C(=O)NC2=C3C=CNC3=NC=C2)N
In short: as §1

[5] = compound: Cc1cc(Nc2cc(CN3CCOCC3)c3nc(C)c(Cc4ccc(Cl)cc4F)n3n2)n[nH]1 [gandotinib]
In short: as §1

[6] = compound: Cc1cc(SCc2sc(-c3ccc(C(F)(F)F)cc3)nc2C)ccc1OCC(=O)O
In short: as §1

[7] = compound: Cc1ccc(-n2nc(C(C)(C)C)cc2NC(=O)Nc2ccc(OCCN3CCOCC3)c3ccccc23)cc1 [doramapimod]
In short: as §1

[8] = compound: Cc1ccc(C(=O)N(CCCN)[C@@H](c2nc3cc(Cl)ccc3c(=O)n2Cc2ccccc2)C(C)C)cc1 [ispinesib]
In short: as §1

[9] = compound: C[C@H](Nc1ncnc2nc[nH]c12)c1cc2cccc(Cl)c2c(=O)n1-c1ccccc1 [duvelisib]
In short: as §1

[10] = compound: Cc1cc(Nc2cc(N3CCN(C)CC3)nc(Sc3ccc(NC(=O)C4CC4)cc3)n2)n[nH]1 [tozasertib]
In short: as §1

Target | log2 fold change [1] | log2 fold change [2] | log2 fold change [3] | log2 fold change [4] | log2 fold change [5] | log2 fold change [6] | log2 fold change [7] | log2 fold change [8] | log2 fold change [9] | log2 fold change [10]
OPHN1 (UniProt O60890) | inactive: 0.011 | inactive: -0.06 | inactive: 0.107 | inactive: 0.14 | active: -0.636 | inactive: -0.21 | inactive: 0.26 | inactive: 0.018 | – | –
NSMCE4A (UniProt Q9NXX6) | inactive: 0.038 | inactive: 0.072 | inactive: -0.055 | inactive: -0.009 | inactive: 0.144 | inactive: 0.054 | inactive: 0.047 | inactive: 0.062 | – | –
OSBPL8 (UniProt Q9BZF1) | inactive: 0.019 | inactive: -0.179 | inactive: -0.043 | inactive: 0.219 | inactive: -0.105 | inactive: 0.103 | inactive: 0.078 | inactive: -0.433 | – | –
NSMCE1 (UniProt Q8WV22) | inactive: -0.008 | inactive: 0.054 | inactive: -0.115 | inactive: 0.074 | – | inactive: -0.153 | inactive: 0.006 | inactive: -0.072 | inactive: 0.127 | inactive: -0.006
NT5DC1 (UniProt Q5TFE4) | inactive: 0.045 | inactive: 0.071 | inactive: 0.046 | inactive: -0.052 | inactive: 0.019 | inactive: -0.038 | inactive: -0.018 | inactive: 0.037 | – | –
OPA1 isoform 2 (UniProt O60313) | inactive: 0.056 | active: -0.326 | inactive: 0.048 | inactive: -0.003 | inactive: -0.063 | inactive: 0.054 | inactive: -0.031 | active: -0.337 | – | –
NUP160 (UniProt Q12769) | inactive: 0.017 | inactive: -0.014 | inactive: 0.034 | inactive: -0.027 | inactive: -0.06 | inactive: 0.007 | inactive: 0.019 | inactive: 0.044 | – | –
NSMCE2 (UniProt Q96MF7) | inactive: 0.001 | inactive: 0.051 | inactive: -0.038 | inactive: -0.024 | inactive: -0.131 | inactive: -0.042 | inactive: 0.004 | inactive: 0.044 | – | –
OSTM1 (UniProt Q86WC4) | inactive: -0.014 | inactive: -0.244 | inactive: 0.028 | inactive: -0.021 | inactive: -0.225 | inactive: -0.033 | inactive: 0.041 | active: -0.308 | – | –
OTUD4 (UniProt Q01804) | inactive: 0.018 | inactive: -0.001 | inactive: -0.094 | inactive: 0.106 | inactive: 0.059 | inactive: -0.001 | inactive: 0.052 | inactive: -0.034 | – | –
OGFOD1 (UniProt Q8N543) | inactive: 0.034 | inactive: -0.001 | inactive: 0.042 | inactive: 0.003 | inactive: -0.009 | inactive: -0.021 | inactive: -0.015 | inactive: -0.043 | – | –
OXSM (UniProt Q9NWU1) | inactive: 0.016 | inactive: 0.053 | inactive: 0.036 | inactive: -0.07 | inactive: -0.054 | inactive: -0.002 | inactive: -0.055 | inactive: 0.077 | – | –
OPA3 (UniProt Q9H6K4) | inactive: 0.025 | inactive: -0.039 | inactive: 0.049 | inactive: -0.035 | – | inactive: -0.076 | inactive: -0.036 | inactive: -0.139 | inactive: 0.038 | inactive: -0.03
NUMA1 (UniProt Q14980) | inactive: 0.117 | inactive: -0.001 | inactive: -0.071 | inactive: 0.089 | inactive: -0.066 | inactive: 0.07 | inactive: 0.178 | inactive: -0.089 | – | –
NUP98 (UniProt P52948) | inactive: 0.031 | inactive: -0.02 | inactive: 0.007 | inactive: -0.009 | inactive: -0.044 | inactive: 0.1 | inactive: 0.022 | inactive: 0.001 | – | –
ORC3 isoform 2 (UniProt Q9UBD5) | inactive: -0.054 | active: -0.434 | inactive: 0.015 | inactive: -0.005 | inactive: -0.044 | inactive: 0.177 | inactive: 0.016 | inactive: -0.17 | – | –

Record cards (already shown). Order of values: log2 fold change [1] | log2 fold change [2] | log2 fold change [3] | log2 fold change [4] | log2 fold change [5] | log2 fold change [6] | log2 fold change [7] | log2 fold change [8] | log2 fold change [9] | log2 fold change [10]
OXSM (UniProt Q9NWU1) as listed: inactive: 0.016 | inactive: 0.053 | inactive: 0.036 | inactive: -0.07 | inactive: -0.054 | inactive: -0.002 | inactive: -0.055 | inactive: 0.077 | – | –
OSTM1 (UniProt Q86WC4) as listed: inactive: -0.014 | inactive: -0.244 | inactive: 0.028 | inactive: -0.021 | inactive: -0.225 | inactive: -0.033 | inactive: 0.041 | active: -0.308 | – | –

Later entries:

Target | log2 fold change [1] | log2 fold change [2] | log2 fold change [3] | log2 fold change [4] | log2 fold change [5] | log2 fold change [6] | log2 fold change [7] | log2 fold change [8] | log2 fold change [9] | log2 fold change [10]
NUDT21 (UniProt O43809) | inactive: -0.054 | inactive: 0.039 | inactive: -0.031 | active: -0.209 | inactive: -0.059 | inactive: 0.039 | inactive: 0.007 | inactive: 0.116 | – | –
OGN (UniProt P20774) | inactive: 0.115 | inactive: -0.038 | inactive: 0.206 | inactive: 0.298 | – | inactive: 0.363 | inactive: -0.014 | inactive: -0.057 | inactive: 0.161 | inactive: 0.044
OXSR1 (UniProt O95747) | inactive: 0.031 | inactive: -0.127 | inactive: 0.021 | inactive: 0.011 | inactive: -0.096 | inactive: 0.095 | inactive: 0.011 | inactive: -0.055 | – | –
NUDT18 (UniProt Q6ZVK8) | inactive: 0 | inactive: 0.079 | inactive: -0.263 | inactive: -0.109 | inactive: 0.032 | – | inactive: -0.11 | inactive: 0.013 | – | inactive: -0.025
NUCKS1 (UniProt Q9H1E3) | inactive: -0.147 | active: 0.274 | inactive: -0.133 | inactive: 0.029 | inactive: 0.001 | inactive: -0.089 | inactive: -0.03 | inactive: 0.168 | – | –
PAAF1 (UniProt Q9BRP4) | inactive: -0.003 | inactive: -0.003 | inactive: 0.078 | inactive: -0.071 | inactive: -0.035 | inactive: 0.018 | inactive: -0.022 | inactive: 0.047 | – | –
P4HA1 (UniProt P13674) | inactive: 0.03 | inactive: 0.037 | inactive: -0.112 | inactive: 0.179 | inactive: 0.1 | inactive: 0.051 | inactive: 0.077 | inactive: -0.029 | inactive: -0.045 | inactive: 0.068
NSUN2 (UniProt Q08J23) | inactive: -0.107 | inactive: -0.034 | inactive: 0.031 | inactive: 0.008 | inactive: -0.151 | inactive: 0.053 | inactive: 0.067 | inactive: -0.098 | – | –
P4HA2 (UniProt O15460) | inactive: 0.079 | inactive: 0.023 | active: -0.627 | inactive: 0.178 | inactive: 0.021 | inactive: 0.053 | inactive: 0.069 | inactive: -0.088 | – | –
P2RX4 isoform 2 (UniProt Q99571) | inactive: -0.027 | inactive: -0.217 | inactive: 0.008 | inactive: 0 | – | inactive: 0.033 | inactive: 0.043 | inactive: -0.125 | inactive: 0.242 | inactive: -0.106
OXA1L (UniProt Q15070) | inactive: -0.042 | inactive: -0.064 | inactive: 0.004 | inactive: -0.018 | inactive: 0.012 | inactive: 0.018 | inactive: -0.01 | inactive: -0.1 | – | –
NUDT2 (UniProt P50583) | inactive: -0.01 | inactive: -0.161 | inactive: -0.039 | inactive: 0.094 | – | inactive: 0.061 | inactive: 0.027 | inactive: -0.07 | inactive: 0.075 | inactive: -0.044
OTULIN (UniProt Q96BN8) | inactive: -0.099 | inactive: -0.079 | inactive: 0.04 | inactive: 0.036 | inactive: -0.088 | inactive: 0.073 | inactive: -0.095 | inactive: -0.208 | – | –
NUP107 (UniProt P57740) | inactive: 0.101 | inactive: -0.067 | inactive: -0.083 | inactive: -0.062 | inactive: -0.229 | inactive: 0.093 | inactive: 0.11 | inactive: -0.018 | – | –
OSBP (UniProt P22059) | inactive: -0.015 | inactive: 0.057 | inactive: 0.025 | inactive: -0.043 | inactive: -0.025 | inactive: 0.016 | inactive: -0.028 | active: 0.216 | – | –
OBSCN (UniProt A6NGQ3) | inactive: 0.147 | inactive: 0.078 | – | inactive: 0.192 | – | – | inactive: 0.093 | inactive: -0.179 | – | inactive: -0.085
